Data published in PubChem BioAssay AID1671190 (National Center for Advancing Translational Sciences (NCATS), 2021).
Hit rate of the full screen: of about 580,000 compounds, about 6,100 (1.1%) were called active. The shares of active, inactive and inconclusive entries below differ from those in the screen. Calls follow the shape of the dose curve; as a rule, active = well fitted inhibition curve with a large enough effect; inconclusive = small, poorly fitted or top-dose-only effect, or another doubt; inactive = no such curve, though single readings can be large or run the other way. Where the call is inconclusive, the potency comes from a doubtful curve fit.

Amino acid sequences for entries named in this document (tags omitted). A change or cut given only in a name is not applied to a line headed by its entry.
UniProt P18054: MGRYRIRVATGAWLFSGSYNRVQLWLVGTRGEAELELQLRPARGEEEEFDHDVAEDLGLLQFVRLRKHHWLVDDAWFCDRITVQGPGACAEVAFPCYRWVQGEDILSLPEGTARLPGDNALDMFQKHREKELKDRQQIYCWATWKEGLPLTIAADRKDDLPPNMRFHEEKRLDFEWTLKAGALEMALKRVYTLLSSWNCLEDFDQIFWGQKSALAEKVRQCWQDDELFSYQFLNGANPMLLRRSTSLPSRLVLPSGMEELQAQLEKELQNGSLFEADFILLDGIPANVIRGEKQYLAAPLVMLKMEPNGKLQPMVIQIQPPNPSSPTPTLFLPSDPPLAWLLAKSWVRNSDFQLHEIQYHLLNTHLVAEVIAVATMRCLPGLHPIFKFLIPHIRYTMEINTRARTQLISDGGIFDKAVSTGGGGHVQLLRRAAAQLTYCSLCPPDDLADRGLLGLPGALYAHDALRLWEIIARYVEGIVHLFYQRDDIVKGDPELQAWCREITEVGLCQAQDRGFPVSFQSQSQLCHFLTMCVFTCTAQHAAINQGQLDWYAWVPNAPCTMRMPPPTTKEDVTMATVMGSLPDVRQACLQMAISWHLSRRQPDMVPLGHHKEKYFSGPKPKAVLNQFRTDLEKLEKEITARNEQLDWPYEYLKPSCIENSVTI

target: Polyunsaturated fatty acid lipoxygenase ALOX12 (Homo sapiens) (UniProt P18054); experiment: Primary qHTS assay for inhibitors of human arachidonate 12S-lipoxygenase (ALOX12): Round 2; details: purified 12hLO, xylenol orange hydroperoxide absorbance; activity change, negative = inhibition: at 108 µM (top of the series) unless noted
Summary of the method: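 Hydroperoxide product was detected by ferrous iron/xylenol orange as the 573 to 405 nm absorbance ratio. Arachidonic acid at 40 uM (final) was turned over for 30 min at room temperature by 150 nM human 12hLO, pH 7.0 Hepes buffer, after 15 min compound preincubation.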
% is scaled to controls: 0 for no effect and ±100 for the full control effect; potency is read from the fitted curve at half-maximal effect.

Row | SMILES | activity change, negative = inhibition | Potency
1 | O=C(CSc1ncccn1)Nc1ncc(C(F)(F)F)cc1Cl | inactive: -8.86% | 
2 | Cc1ccc(N(CCC(=O)O)S(=O)(=O)c2ccccc2)cc1 |  | inconclusive: 39.8 µM [inhibitor, full curve, poor fit]
3 | Brc1ccc([C@H]2C=C[C@H]3CCCN4CC[C@H]2[C@@H]3[C@]42CO2)cc1 |  | inconclusive: 0.316 µM [inhibitor, full curve, poor fit]
4 | CNC(=O)c1ccc(NS(=O)(=O)c2cc(C(C)(C)C)ccc2C)cc1 | inactive: 9.97% | 
5 | O=C(/C=C/c1ccco1)Nc1ccc(Oc2ccccc2)cc1 |  | inconclusive: 25.1 µM [inhibitor, partial curve, poor fit]
6 | CC(C)(C)C(=O)NCC(=O)N1CCC(c2nc3ccccc3o2)CC1 | inactive: 2.55% | 
7 | CC(C)(C)C1CCc2nc(NC(=O)c3cccc(Cl)c3)sc2C1 (configuration not stated) |  | inconclusive: 50.1 µM [inhibitor, partial curve, poor fit]
8 | COc1ccc(-c2noc([C@@H](C)NCc3ccc(C#N)cc3)c2C(=O)O)cc1 |  | inconclusive: 39.8 µM [inhibitor, single point]
9 | CCCn1cnnc1-c1nc2c([nH]1)CC(c1ccccc1OC)CNC2=O (configuration not stated) | inactive: 46.3% | 
10 | Cc1ccc(NS(=O)(=O)c2ccc3c(c2)CC(=O)N3)cc1C |  | inconclusive: 100 µM [inhibitor, single point]
11 | C=CCC[C@@H](Cc1ccc(F)cc1)C(=O)OC[C@@H](Cc1c[nH]c2ccccc12)NC(=O)[C@H](CC=C)CC(=O)N(CCO)Cc1ccccc1 |  | inconclusive: 39.8 µM [inhibitor, partial curve, poor fit]
12 | CC(=O)Nc1ccc(S(=O)(=O)NNC(=O)c2ccc([N+](=O)[O-])cc2)cc1 |  | inconclusive: 2.82 µM [inhibitor, full curve, poor fit]
13 | CCOc1ccc(Nc2nc(Cc3nnc(SCC(=O)N(CC)CC)n3C)cs2)cc1 |  | inconclusive: 50.1 µM [inhibitor, partial curve, poor fit]
14 | Cc1ccccc1NC(=O)COC(=O)c1c(C)nn(-c2ccccc2)c1C |  | inconclusive: 89.1 µM [inhibitor, single point]
15 | O=C(O)c1cccc(-n2cccc2/C=C2\SC(=O)N(Cc3ccccc3F)C2=O)c1 |  | inconclusive: 44.7 µM [inhibitor, partial curve, poor fit]
16 | CC1(C)CC(C)(c2ccc(O)cc2O)N(c2ccc3ccccc3c2)C(=S)N1 (configuration not stated) |  | active: 17.8 µM
17 | CC(C)C1=Nc2cccc3cccc(c23)N1 |  | inconclusive: 2.51 µM [inhibitor, full curve, poor fit]

3 structures out of the list, ordered by number of heavy atoms, largest number first:
Row | SMILES | activity change, negative = inhibition | Potency
13 | CCOc1ccc(Nc2nc(Cc3nnc(SCC(=O)N(CC)CC)n3C)cs2)cc1 |  | inconclusive: 50.1 µM [inhibitor, partial curve, poor fit]
12 | CC(=O)Nc1ccc(S(=O)(=O)NNC(=O)c2ccc([N+](=O)[O-])cc2)cc1 |  | inconclusive: 2.82 µM [inhibitor, full curve, poor fit]
1 | O=C(CSc1ncccn1)Nc1ncc(C(F)(F)F)cc1Cl | inactive: -8.86% | 
